Data published in patent US20240067721A1 (UNIVERSITY OF BIRMINGHAM, published 2024).
No constants are given. Whether binding was seen depends on the method and setting. Some results given as binding are weak or reduced against the parent protein; the word gives no strength.

Chains of the proteins cited; added tags and fusions are not shown. Residues count along the entry.
UniProt Q9HCN6, residues 22-203: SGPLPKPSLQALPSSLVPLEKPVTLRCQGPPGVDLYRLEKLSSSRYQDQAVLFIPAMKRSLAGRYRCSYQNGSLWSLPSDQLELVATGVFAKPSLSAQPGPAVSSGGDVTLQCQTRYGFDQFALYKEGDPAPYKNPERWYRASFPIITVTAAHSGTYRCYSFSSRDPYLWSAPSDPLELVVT

B1: Nanobody 30 (Nb30) (VHH)
VHH: QVQLQESGGGFVQAGGSLRLSCVASGRTFSTYDMGWFRQAPGKEREFVASILIGGGTYYADSVKGRFTISRDNAKNTVYLQMNSLKPEDTAVYYCAYRAPSSGAYYSNQRAYDYWGQGTQVTVSS
B2: Nanobody 53 (Nb53) (VHH)
VHH: QVQLQESGGGLVQAGGSLRISCAASGRTFSDYYMGWFRQAPGKEREFVAAISWSGRTTYYTNSVKGRFTISRDNAKNTLYLQMNNLKPEDTAVYRCAARPSNSGAYFARTHDYTDWGQGTQVTVSS
B3: Nanobody 11 (Nb11) (VHH)
VHH: QVQLQESGGGVVQTGGSLRLSCVASGFSFEDYGIGWFRQAPGKEREGVSYIKNTDGDTTYADSVKGRFTISSDYAKNTVYLQMNDLEPQDAAVYYCAARPPPLNYYSPYLTPREFSYWGQGTQVTVSS
B4: Nanobody 52 (Nb52) (VHH)
VHH: QVQLQESGGGLVQTGASLRLSCAASGSIFSIDTMGWYRQAPGKQRELVAAITRGGSTNYADSVKGRFTISRDNAKNTVYLQMNSLSPEDTAVYYCNANTGRLAVNYEHDYWGQGTQVTVSS
B5: Nanobody 7 (Nb7) (VHH)
VHH: QVQLQESGGGVVQDGGSLRLSCAASGRTFSSYAMGWFRQAPGKEREFVAAISWSGDSTYSADSVRGRFTISRDNAKNTVYLQMNSLKPEDTAVYYCAADGRNYGLGPLETDSYEYDYWGQGTQVTVSS
B6: Nanobody 18 (Nb18) (VHH)
VHH: QVQLQESGGGLVQAGGSLRLSCAASGFTFDDYAIGWFRQAPGKEREGVSCISSSDGSTYYADSVKGRFTIARDNAKNTVYLQMNSLKPEETAVYYCAASPLYYSGSYCRETEYDYWGQGTQVTVSS
B7: Nanobody 54 (Nb54) (VHH)
VHH: QVQLQESGGGLVQPGGSLRLACAASGSVSSINDMGWYRQAPGKQREFVARISRGGLTNYKDSVKGRFTISRDNAKNQVYLQMNSLKPEDTAVYYCNADFRPSSGTFRLSDYWGQGTQVTVSS

Assays:
[1] = target: recombinant GPVI-Fc (dimeric; D1 and D2 domains of GPVI fused to the Fc domain from IgG) (human) (UniProt Q9HCN6); test: solid-phase binding assay: GPVI-Fc coated surface, nanobody 100 nM per the legend (1 µM per paragraph 122), anti-His HRP, Fc-surface signal subtracted, normalised to Nb35 [cont) b]
[2] = target: recombinant GPVI-Fc (dimeric; D1 and D2 domains of GPVI fused to the Fc domain from IgG) (human) (UniProt Q9HCN6); test: competition ELISA, His-tagged nanobody (100 nM) on GPVI-Fc (10 nM coat), competitor un-tagged Nb2
[3] = target: recombinant GPVI-Fc (dimeric; D1 and D2 domains of GPVI fused to the Fc domain from IgG) (human) (UniProt Q9HCN6); test: surface binding assay on GPVI-Fc coated surface, anti-His HRP, normalised to Nb35

Row | Binder | binding [1] | binding [2] | binding [3]
1 | B1 | binds |  | 
2 | B2 | binds | binds | 
3 | B3 | binds | binds | 
4 | B4 |  |  | binds
5 | B5 |  |  | binds
6 | B6 |  |  | binds
7 | B7 |  |  | binds
